Results from publication PMC5091760.
These are yes or no findings as the source states them, for the method shown. Binding seen in cells or lysates may run through a third protein. Some entries that bind do so weakly or less than the wild type.

By UniProt entry, the sequences of proteins in these tests, tags left out.
UniProt Q9UMN6: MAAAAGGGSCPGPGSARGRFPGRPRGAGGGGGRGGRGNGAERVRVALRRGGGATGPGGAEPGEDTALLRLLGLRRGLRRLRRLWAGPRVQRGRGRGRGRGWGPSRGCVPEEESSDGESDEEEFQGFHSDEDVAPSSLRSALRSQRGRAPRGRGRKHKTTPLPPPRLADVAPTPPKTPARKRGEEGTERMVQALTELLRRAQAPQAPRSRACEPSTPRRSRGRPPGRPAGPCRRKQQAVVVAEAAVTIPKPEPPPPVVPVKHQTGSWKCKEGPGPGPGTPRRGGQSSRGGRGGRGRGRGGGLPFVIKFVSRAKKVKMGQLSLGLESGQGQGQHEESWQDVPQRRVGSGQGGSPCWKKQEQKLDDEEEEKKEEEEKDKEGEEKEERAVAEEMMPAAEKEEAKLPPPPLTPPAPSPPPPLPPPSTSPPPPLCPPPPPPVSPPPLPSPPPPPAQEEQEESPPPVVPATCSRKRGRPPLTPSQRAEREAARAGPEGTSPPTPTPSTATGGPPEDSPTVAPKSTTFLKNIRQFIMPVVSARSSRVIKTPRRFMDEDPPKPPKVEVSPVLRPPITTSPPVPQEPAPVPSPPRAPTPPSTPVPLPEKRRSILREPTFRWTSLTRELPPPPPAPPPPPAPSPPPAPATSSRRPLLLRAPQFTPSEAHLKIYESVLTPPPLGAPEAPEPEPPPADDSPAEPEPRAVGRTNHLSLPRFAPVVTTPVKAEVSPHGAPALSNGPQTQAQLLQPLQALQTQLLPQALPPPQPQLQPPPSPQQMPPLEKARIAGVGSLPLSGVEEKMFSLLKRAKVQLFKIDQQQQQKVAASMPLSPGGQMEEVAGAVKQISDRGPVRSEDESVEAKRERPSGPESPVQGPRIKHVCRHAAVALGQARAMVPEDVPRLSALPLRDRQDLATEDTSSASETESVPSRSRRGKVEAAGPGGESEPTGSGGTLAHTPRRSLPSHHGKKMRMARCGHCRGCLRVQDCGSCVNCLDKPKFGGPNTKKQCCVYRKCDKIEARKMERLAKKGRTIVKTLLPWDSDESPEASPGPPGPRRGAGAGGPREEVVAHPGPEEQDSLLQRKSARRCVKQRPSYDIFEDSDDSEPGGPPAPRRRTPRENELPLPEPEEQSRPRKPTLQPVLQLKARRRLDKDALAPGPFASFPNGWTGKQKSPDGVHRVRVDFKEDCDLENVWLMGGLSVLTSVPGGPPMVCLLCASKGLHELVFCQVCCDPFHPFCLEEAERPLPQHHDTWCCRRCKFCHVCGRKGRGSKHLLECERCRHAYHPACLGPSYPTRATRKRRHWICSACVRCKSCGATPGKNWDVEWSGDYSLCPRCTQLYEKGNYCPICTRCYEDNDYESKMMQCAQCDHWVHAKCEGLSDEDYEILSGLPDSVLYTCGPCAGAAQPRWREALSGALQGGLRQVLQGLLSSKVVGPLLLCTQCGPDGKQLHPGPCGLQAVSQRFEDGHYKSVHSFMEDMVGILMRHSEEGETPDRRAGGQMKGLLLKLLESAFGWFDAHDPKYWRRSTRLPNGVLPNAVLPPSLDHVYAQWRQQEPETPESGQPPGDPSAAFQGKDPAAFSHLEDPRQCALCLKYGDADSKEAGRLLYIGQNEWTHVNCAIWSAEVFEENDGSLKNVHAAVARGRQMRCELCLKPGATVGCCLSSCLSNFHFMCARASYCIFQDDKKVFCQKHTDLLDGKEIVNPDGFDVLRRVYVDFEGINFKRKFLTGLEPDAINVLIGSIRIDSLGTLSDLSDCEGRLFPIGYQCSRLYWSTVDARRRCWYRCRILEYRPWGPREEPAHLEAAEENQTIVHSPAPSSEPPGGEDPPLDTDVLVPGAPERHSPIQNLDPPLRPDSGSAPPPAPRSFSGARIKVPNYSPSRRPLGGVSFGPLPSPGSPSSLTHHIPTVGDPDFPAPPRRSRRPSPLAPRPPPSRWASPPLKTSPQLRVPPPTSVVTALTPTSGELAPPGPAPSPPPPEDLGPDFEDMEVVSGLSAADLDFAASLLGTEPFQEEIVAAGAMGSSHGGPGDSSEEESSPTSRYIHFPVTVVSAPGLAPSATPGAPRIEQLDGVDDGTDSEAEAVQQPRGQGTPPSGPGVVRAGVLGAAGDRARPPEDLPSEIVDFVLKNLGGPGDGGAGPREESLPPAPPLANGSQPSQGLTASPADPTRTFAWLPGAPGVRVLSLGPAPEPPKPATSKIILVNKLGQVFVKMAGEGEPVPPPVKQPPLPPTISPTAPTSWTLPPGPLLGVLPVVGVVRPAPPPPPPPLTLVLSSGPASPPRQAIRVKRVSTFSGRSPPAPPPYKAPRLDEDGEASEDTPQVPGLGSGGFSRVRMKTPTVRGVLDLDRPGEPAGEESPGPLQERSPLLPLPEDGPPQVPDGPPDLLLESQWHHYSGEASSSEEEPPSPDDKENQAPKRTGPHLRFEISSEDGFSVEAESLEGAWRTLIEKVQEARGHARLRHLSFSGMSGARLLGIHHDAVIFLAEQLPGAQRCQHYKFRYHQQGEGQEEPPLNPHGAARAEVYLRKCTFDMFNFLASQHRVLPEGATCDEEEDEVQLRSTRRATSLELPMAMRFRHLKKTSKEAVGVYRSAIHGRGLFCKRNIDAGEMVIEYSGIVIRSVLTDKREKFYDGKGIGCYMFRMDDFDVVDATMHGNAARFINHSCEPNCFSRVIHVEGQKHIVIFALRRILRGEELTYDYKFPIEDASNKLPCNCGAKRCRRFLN
UniProt P03372: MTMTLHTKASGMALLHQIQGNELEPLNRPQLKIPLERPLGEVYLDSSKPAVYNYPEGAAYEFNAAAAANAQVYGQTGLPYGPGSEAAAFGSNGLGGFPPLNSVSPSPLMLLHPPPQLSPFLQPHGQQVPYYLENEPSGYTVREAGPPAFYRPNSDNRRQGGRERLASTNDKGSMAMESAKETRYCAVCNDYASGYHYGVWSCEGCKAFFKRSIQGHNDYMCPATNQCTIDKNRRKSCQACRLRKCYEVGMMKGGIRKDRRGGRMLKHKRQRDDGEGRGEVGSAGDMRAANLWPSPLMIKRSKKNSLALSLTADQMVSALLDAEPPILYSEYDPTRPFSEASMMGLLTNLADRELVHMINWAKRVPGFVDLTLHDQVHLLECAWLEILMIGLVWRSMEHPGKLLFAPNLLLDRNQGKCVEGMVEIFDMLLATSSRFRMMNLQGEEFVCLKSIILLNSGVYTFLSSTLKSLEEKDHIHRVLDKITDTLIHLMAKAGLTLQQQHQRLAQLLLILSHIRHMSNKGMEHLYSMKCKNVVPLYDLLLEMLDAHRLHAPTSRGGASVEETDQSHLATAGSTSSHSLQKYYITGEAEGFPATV

Target: KMT2B histone methyltransferase (human (endogenous in MCF-7)) (UniProt Q9UMN6)
Test: co-IP; endogenous proteins; MCF-7 cells treated with E2 for 24 h; whole-cell lysates immunoprecipitated with KMT2B or ERα antibodies; western blot with anti-KMT2B or anti-ERα

binding: binds
Substance: estrogen receptor alpha (ERα) (from UniProt P03372 1-595)
